This is one part of the list. Small differences around the control level are noise.

Chains of the proteins cited; added tags and fusions are not shown. Lines headed by an entry give the natural chain unless they say otherwise; changes in a name come on top.
UniProt Q9NPB8: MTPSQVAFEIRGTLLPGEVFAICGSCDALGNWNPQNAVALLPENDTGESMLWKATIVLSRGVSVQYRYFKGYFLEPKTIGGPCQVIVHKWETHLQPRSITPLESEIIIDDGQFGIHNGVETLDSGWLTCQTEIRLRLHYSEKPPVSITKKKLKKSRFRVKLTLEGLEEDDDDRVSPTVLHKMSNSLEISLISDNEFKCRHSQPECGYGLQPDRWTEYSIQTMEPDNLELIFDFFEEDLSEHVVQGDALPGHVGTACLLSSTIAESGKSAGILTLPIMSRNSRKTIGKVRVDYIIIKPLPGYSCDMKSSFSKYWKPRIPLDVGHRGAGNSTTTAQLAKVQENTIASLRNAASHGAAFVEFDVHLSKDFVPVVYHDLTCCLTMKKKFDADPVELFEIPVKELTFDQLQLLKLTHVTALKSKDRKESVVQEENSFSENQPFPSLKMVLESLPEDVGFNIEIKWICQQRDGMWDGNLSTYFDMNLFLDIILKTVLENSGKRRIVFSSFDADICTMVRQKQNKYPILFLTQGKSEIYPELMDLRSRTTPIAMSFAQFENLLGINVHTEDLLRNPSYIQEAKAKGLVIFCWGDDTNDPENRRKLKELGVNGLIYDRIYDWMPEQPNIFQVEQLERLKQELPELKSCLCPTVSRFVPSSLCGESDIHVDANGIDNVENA
UniProt Q9NRY2: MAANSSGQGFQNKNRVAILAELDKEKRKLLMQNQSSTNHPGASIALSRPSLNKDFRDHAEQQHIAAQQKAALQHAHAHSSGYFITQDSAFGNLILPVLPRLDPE
UniProt Q9NRH2: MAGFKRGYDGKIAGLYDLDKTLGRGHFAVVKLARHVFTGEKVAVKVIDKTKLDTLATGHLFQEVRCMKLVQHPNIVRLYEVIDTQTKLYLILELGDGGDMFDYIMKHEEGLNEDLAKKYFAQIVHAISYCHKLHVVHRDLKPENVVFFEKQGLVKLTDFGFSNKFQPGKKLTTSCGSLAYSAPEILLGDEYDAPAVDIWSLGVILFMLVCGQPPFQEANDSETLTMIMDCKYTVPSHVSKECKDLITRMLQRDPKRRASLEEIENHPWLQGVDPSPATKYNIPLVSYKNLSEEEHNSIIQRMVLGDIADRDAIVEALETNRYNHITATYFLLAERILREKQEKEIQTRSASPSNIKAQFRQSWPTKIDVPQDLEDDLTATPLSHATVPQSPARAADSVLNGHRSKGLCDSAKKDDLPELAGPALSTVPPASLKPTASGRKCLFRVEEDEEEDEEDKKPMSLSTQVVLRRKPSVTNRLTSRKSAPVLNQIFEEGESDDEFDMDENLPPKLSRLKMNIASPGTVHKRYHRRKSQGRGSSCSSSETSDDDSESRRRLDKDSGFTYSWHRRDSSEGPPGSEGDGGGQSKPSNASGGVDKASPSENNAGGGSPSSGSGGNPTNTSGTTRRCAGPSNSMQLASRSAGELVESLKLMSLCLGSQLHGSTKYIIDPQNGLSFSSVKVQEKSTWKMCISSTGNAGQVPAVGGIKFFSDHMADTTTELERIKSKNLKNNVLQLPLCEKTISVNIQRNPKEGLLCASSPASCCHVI
UniProt Q9NQ29: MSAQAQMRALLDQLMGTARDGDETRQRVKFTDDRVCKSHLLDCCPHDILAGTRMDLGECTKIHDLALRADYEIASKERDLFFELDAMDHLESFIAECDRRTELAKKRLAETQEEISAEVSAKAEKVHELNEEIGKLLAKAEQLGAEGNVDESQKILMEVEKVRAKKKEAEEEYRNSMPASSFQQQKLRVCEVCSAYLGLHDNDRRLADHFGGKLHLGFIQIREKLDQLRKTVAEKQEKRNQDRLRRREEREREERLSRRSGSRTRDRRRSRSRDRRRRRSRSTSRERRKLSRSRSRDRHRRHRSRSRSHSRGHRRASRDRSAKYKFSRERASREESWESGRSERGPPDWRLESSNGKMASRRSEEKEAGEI
UniProt Q9NRL2: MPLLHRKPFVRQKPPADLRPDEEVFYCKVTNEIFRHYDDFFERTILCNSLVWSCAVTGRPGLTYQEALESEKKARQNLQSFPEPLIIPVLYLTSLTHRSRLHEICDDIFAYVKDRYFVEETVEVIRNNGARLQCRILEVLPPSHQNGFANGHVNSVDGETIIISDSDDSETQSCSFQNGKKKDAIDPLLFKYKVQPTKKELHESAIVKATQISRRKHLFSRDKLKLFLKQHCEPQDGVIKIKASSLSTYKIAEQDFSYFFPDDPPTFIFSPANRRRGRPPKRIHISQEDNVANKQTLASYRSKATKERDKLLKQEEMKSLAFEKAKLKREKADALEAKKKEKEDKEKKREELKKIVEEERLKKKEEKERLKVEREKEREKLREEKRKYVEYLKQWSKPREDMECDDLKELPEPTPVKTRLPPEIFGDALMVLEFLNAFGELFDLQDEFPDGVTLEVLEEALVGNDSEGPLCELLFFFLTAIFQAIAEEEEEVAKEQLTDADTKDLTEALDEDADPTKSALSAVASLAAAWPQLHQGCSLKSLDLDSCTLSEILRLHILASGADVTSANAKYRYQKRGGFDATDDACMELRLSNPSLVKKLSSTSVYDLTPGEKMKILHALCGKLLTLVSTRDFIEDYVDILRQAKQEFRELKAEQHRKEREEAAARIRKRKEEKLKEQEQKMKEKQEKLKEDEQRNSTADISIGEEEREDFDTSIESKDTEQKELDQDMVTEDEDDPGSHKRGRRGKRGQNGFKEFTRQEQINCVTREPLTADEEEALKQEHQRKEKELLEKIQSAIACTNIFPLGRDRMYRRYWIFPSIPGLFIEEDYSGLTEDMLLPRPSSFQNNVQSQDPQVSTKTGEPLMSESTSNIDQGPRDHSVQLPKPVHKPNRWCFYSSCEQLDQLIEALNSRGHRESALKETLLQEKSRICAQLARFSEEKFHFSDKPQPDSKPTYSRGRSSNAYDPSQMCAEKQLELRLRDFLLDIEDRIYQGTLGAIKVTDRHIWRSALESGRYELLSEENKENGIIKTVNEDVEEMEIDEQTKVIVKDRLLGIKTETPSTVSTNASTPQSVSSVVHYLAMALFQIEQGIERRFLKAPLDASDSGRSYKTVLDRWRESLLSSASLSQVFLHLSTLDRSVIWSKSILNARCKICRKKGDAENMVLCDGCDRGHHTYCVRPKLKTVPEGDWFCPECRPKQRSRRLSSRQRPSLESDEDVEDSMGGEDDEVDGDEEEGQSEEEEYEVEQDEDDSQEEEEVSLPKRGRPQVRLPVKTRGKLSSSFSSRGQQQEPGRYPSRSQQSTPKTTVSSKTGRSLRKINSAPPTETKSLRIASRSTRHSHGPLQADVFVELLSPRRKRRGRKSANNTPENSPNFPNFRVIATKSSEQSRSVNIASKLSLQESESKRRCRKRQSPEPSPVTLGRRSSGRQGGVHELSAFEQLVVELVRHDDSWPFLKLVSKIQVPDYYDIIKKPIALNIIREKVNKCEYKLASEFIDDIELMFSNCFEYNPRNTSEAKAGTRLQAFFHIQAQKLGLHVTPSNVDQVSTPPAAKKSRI
UniProt Q9NV88, whole entry: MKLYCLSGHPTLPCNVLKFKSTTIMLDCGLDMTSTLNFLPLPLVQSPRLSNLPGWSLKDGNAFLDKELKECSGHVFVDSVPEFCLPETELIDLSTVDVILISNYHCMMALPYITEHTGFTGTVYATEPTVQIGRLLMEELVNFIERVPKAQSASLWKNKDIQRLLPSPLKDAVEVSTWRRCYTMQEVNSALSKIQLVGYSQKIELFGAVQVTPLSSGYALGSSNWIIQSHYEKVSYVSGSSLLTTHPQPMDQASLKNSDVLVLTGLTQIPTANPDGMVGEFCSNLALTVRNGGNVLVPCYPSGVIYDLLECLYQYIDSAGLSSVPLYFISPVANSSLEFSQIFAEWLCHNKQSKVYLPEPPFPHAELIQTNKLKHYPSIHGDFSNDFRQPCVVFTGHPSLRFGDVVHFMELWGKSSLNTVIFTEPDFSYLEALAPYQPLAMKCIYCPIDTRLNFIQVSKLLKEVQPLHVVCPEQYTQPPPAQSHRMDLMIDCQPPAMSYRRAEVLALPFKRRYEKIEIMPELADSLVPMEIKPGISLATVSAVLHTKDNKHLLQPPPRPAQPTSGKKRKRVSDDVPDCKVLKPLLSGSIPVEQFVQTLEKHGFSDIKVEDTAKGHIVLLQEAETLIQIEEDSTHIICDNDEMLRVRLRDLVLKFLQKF
UniProt Q9NTJ3, whole entry: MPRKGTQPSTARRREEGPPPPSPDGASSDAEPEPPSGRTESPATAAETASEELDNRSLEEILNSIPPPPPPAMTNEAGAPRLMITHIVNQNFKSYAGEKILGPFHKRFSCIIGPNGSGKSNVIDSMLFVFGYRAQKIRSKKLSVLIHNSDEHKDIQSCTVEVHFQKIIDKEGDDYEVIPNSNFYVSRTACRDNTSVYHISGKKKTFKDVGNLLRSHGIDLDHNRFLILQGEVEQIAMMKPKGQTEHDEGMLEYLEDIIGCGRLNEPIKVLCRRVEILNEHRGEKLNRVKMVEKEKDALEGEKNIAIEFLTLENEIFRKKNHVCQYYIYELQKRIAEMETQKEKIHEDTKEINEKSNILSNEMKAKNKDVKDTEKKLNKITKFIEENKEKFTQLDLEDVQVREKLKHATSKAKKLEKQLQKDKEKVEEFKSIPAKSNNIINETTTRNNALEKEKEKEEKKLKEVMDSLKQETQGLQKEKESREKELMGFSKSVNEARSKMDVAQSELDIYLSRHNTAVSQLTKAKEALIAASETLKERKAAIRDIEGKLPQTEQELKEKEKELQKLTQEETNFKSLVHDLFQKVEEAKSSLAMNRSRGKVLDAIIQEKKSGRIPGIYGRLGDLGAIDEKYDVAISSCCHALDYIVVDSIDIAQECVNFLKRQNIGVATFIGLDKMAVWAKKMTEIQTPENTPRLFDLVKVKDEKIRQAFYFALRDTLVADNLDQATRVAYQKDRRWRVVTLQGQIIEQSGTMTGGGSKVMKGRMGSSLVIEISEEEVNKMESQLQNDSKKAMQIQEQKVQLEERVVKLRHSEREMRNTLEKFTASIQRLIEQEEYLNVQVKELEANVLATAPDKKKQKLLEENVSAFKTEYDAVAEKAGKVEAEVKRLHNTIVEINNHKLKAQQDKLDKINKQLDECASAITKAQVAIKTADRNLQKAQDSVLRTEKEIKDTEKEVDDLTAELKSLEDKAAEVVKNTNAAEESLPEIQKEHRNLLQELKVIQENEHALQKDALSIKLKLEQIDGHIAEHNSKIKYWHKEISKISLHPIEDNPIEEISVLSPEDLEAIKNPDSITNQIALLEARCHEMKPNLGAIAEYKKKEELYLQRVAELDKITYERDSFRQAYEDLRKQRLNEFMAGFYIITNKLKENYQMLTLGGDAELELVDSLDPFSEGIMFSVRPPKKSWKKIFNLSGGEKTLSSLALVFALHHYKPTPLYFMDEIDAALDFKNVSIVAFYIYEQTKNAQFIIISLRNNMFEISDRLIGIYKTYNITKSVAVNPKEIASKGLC
UniProt Q9NVQ4: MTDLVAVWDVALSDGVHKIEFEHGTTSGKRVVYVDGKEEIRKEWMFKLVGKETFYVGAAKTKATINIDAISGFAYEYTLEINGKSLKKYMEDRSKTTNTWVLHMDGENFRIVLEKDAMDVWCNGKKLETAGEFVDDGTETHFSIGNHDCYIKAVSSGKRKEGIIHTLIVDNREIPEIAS
UniProt Q9NQT5, whole entry: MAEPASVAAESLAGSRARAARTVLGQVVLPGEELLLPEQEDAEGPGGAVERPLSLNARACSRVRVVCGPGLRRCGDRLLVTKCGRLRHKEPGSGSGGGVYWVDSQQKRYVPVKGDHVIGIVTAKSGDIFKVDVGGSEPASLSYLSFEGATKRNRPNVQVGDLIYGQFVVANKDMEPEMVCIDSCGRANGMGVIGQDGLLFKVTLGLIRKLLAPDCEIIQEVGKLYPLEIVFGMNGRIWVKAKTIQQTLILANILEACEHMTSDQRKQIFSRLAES
UniProt Q9NVU0: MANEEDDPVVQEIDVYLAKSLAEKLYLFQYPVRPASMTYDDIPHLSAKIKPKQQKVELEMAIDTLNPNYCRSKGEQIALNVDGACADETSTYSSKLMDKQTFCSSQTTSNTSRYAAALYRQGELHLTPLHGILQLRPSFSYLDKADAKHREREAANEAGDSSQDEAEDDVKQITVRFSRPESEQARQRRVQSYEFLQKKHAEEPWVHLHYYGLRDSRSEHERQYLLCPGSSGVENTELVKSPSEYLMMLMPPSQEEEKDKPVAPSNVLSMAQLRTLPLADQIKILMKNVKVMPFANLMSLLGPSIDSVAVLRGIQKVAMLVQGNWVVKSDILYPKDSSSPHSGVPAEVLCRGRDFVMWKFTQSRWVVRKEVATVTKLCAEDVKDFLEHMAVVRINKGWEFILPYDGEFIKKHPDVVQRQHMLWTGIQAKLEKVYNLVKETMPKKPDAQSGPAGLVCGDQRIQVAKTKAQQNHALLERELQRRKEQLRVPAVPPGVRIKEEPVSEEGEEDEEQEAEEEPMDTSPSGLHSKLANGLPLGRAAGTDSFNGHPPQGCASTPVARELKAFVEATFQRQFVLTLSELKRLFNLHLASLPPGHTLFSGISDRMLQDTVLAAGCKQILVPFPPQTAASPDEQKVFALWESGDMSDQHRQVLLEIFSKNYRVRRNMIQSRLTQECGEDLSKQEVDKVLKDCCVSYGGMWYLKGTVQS

Compound in this test: Cc1nc(Nc2ncc(C(=O)Nc3c(C)cccc3Cl)s2)cc(N2CCN(CCO)CC2)n1 [dasatinib]
Kind of test: log2 fold change of tryptic peptide abundance, ligand vs vehicle (limited proteolysis) (log2 ratio); higher = more trypsin-susceptible (destabilized). The following applies: ligand concentration: 5 uM; sample: K562 cleared lysate.
In the case of “GLRX2 (peptide sequence: LLPLVHQCYLKK, peptide start residue: 146) (UniProt Q9NS18)”, the log2 fold change is -0.167. With “GPCPD1 (peptide sequence: QNKYPILFLTQGK, peptide start residue: 516) (UniProt Q9NPB8)” the figure was -0.201; with “ISYNA1 (peptide sequence: ADNLIPGSR, peptide start residue: 192) (UniProt Q9NPH2)”, -0.0881; with “FBXO6 (peptide sequence: HGQEEAAQSPYR, peptide start residue: 276) (UniProt Q9NRD1)”, 0.112.

On to “UniProt Q9NRY2 (peptide sequence: VAILAELDKEK, peptide start residue: 16)”, for which the log2 fold change was -0.446. With “FAM49B (peptide sequence: VMVGVIILYDHVHPVGAFAK, peptide start residue: 256) (UniProt Q9NUQ9)” the figure was 0.0819. As to “XPNPEP1 (peptide sequence: QMDSNWTLMK, peptide start residue: 85) (UniProt Q9NQW7)”, the log2 fold change was -0.107. With “UBE2T (peptide sequence: FLTPIYHPNIDSAGR, peptide start residue: 70) (UniProt Q9NPD8)” the figure was 0.0985; with “ZFP64 (peptide sequence: DEAKTENR, peptide start residue: 548) (UniProt Q9NTW7)”, -0.0602. With “FBXO28 (peptide sequence: ATEAIDSLR, peptide start residue: 351) (UniProt Q9NVF7)” the figure was 0.5; with “DNAJC11 (peptide sequence: KQEAESAVR, peptide start residue: 435) (UniProt Q9NVH1)”, 0.331. For “SLC35D1 (peptide sequence: QKLDSKELGK, peptide start residue: 207) (UniProt Q9NTN3)”, the log2 fold change turned out to be 0.248. On to “UniProt Q9NRY4 (peptide sequence: IELSVLSYHSSFSIR, peptide start residue: 833)”, for which the log2 fold change came to 0.676. With “UniProt Q9NSI2 (peptide sequence: RGEAGSSAR, peptide start residue: 79)” the figure was 0.361; with “SNRK (peptide sequence: YNIPLVSYK, peptide start residue: 280) (UniProt Q9NRH2)”, -0.335. With “DIAPH3 (peptide sequence: KVSVEDFLTDLNNFR, peptide start residue: 991) (UniProt Q9NSV4)” the figure was 0.794. With “UniProt Q9NPA3 (peptide sequence: HSLFNAMNR, peptide start residue: 12)” the figure was -0.0791; with “SDF2L1 (peptide sequence: TGAELVTCGSVLKLLNTHHR, peptide start residue: 31) (UniProt Q9HCN8)”, 0.21; with “MRPS30 (peptide sequence: QYENHIFVGSK, peptide start residue: 277) (UniProt Q9NP92)”, -0.834. For the target “UniProt Q9NRC8 (peptide sequence: LVQHVVSQNCDGLHLR, peptide start residue: 160)”, the log2 fold change is 0.256. Consider “SNX15 (peptide sequence: DGVHVLLQGVPSDPLPARQEGVK, peptide start residue: 297) (UniProt Q9NRS6)”, for which the log2 fold change was -0.267.

As for “UniProt Q9NVJ2 (peptide sequence: DLPNALDEK, peptide start residue: 133)”, the log2 fold change was -0.163. Take “ZNF277 (peptide sequence: LREILEQQQQER, peptide start residue: 155) (UniProt Q9NRM2)”: the log2 fold change was -0.267.

For “LUC7L (peptide sequence: SERGPPDWR, peptide start residue: 342) (UniProt Q9NQ29)”, the log2 fold change is 0.348. With “ECHDC1 (peptide sequence: LLHQTGLSLYSTSHGFYEEEVKK, peptide start residue: 23) (UniProt Q9NTX5)”, the log2 fold change is -0.0959.

Turning to “LMBRD1 (peptide sequence: DGRPLPAR, peptide start residue: 257) (UniProt Q9NUN5)”, the log2 fold change is -0.135. With “BAZ1A (peptide sequence: EKADALEAK, peptide start residue: 330) (UniProt Q9NRL2)” the figure was 0.297; with “USP40 (peptide sequence: RPGRLLR, peptide start residue: 1030) (UniProt Q9NVE5)”, -0.392. For the target “SH2B1 (peptide sequence: VGGPLAVLGPSR, peptide start residue: 113) (UniProt Q9NRF2)”, the log2 fold change was found to be 0.182.

Regarding “NRIP3 (peptide sequence: DMQPHNILQR, peptide start residue: 57) (UniProt Q9NQ35)”, the log2 fold change is -0.36. With “INTS9 (peptide sequence: RAEVLALPFKR, peptide start residue: 501) (UniProt Q9NV88)” the figure was -0.144; with “GPN1 (peptide sequence: SLANAESQQQR, peptide start residue: 279) (UniProt Q9HCN4)”, -0.0513.

As for “SMC4 (peptide sequence: VEILNEHRGEK, peptide start residue: 274) (UniProt Q9NTJ3)”, the log2 fold change was 0.253. With “AURKAIP1 (peptide sequence: EAPEGWQTPK, peptide start residue: 184) (UniProt Q9NWT8)” the figure was -0.0666. With “UniProt Q9NUP7 (peptide sequence: TSLETSNSTTK, peptide start residue: 378)” the figure was -0.398; with “FAIM (peptide sequence: TTNTWVLHMDGENFR, peptide start residue: 96) (UniProt Q9NVQ4)”, 0.192. With “EXOSC3 (peptide sequence: RYVPVKGDHVIGIVTAK, peptide start residue: 108) (UniProt Q9NQT5)” the figure was -0.448; with “POLR3E (peptide sequence: FSRPESEQAR, peptide start residue: 177) (UniProt Q9NVU0)”, 0.192.
